Results are given in words; binding and its absence hold for the method and conditions named. In cells and extracts the contact can be indirect. Some binding calls cover weakened binding; strength is not graded here.
What was measured:
[1] = molecular target: myc-tagged wild-type parkin (human) (UniProt O60260); experiment: co-IP; HEK cells co-transfected with myc-parkin variant and Flag-Bax variant; lysates incubated with myc-conjugated agarose beads overnight at 4 °C; washed 3 x 15 min in STEN buffer (50 mM Tris pH 7.6, 150 mM NaCl, 2 mM EDTA, 0.2% NP-40); blots probed with Flag M2 antibody
[2] = molecular target: myc-tagged mutant parkin R275W (human) (UniProt O60260); experiment: as above
[3] = molecular target: WT human parkin stably expressed in CHO cells (human) (UniProt O60260); experiment: co-IP; CHO-Parkin cells transfected with GFP-Bax variant; lysates precipitated with monoclonal parkin antibody PRK8 and Protein-G agarose overnight at 4 °C; blots probed with GFP antibody

By UniProt entry, the sequences of proteins in these tests, tags left out.
UniProt Q07812: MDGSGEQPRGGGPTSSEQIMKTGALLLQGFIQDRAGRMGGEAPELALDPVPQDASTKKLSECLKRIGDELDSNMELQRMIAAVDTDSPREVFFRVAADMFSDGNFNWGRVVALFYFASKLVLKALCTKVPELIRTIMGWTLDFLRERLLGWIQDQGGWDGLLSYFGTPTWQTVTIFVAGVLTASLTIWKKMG

Substance	binding [1]	binding [2]	binding [3]
Flag-tagged wild-type human Bax (from UniProt Q07812 1-192)	binds	binds	–
GFP-tagged wild-type Bax (from UniProt Q07812 1-192)	–	–	binds
